Percent effect of library compounds

Mtb cholesterol medium: 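Phenotypic screen: M. tuberculosis growth, cholesterol and DPPC medium, 4 days; the read-out is not stated. Compounds at 50 µM. Direction is inferred from retests: higher values go with more growth inhibition. Of about 69,000 compounds tested this way, about 370 (0.54%) reached 50% or more in at least one test.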
Mtb glucose medium: 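Phenotypic screen: M. tuberculosis growth, glucose 7H9 medium, 3 days; the read-out is not stated. Compounds at 50 µM. Higher reads as more growth inhibition (inferred: compounds with an IC50 in retests scored well above the rest). Of about 69,000 compounds tested this way, about 760 (1.1%) reached 50% or more in at least one test.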

Each number is a percent effect as filed. The controls that fix the scale are not given in the record; negative values are as filed. This is an unselected part of the compounds tested. Two or more numbers in one place are separate tests of the same structure; such repeats can differ widely.

With O=C(O)[C@@H]1CN(Cc2ccc3nsnc3c2)C[C@H]1c1ccncc1 the screen gave Mtb cholesterol medium: -10.1%; Mtb glucose medium: 6.321%.
With CC(C)c1cc(-c2cnn(C)c2C2CC2)c(C#N)c(N)n1 the screen gave Mtb cholesterol medium: -33.3%; Mtb glucose medium: -10.2%.
With COc1ccc(S(=O)(=O)NC(=O)C(C)OC)c(OC)c1 (configuration not stated) the screen gave Mtb cholesterol medium: 20.06%; Mtb glucose medium: 15.21% and 0.8007%.
With CNC(=O)c1ccc(C2CCCN(C(=O)c3c(C)noc3C)C2)nc1 (configuration not stated) the screen gave Mtb cholesterol medium: -10.17%; Mtb glucose medium: -2.538%.
With COC(=O)CNC(=O)C(C(C)C)n1cnc2cc(F)c(F)cc21 (configuration not stated) the screen gave Mtb cholesterol medium: -5.733%; Mtb glucose medium: 4.592%.
With CCCN(Cc1cccnc1)C(=O)C1CCCN(C)C1 (configuration not stated) the screen gave Mtb cholesterol medium: -5.975% and -15.12%; Mtb glucose medium: -11.22% and -4.973%.
With CC(C)NC1CCc2c(ccc(=O)n2CCN(C)C)C1.O=C(O)C(F)(F)F.O=C(O)C(F)(F)F (configuration not stated) the screen gave Mtb cholesterol medium: -29.46%; Mtb glucose medium: -32.19% and -10.02%.
With CCN(CC1CN(CCc2ccccn2)CCO1)c1cccnn1 (configuration not stated) the screen gave Mtb cholesterol medium: 6.966%; Mtb glucose medium: 0.193%.
With Cc1ccc(-c2ccccc2CC2CNCCNC2=O)c(C)c1.Cl (configuration not stated) the screen gave Mtb cholesterol medium: 4.754% and -6.173%; Mtb glucose medium: -4.757%.
With Cc1nnc(NCc2ccc(Cl)cc2)o1 the screen gave Mtb cholesterol medium: 14.33%; Mtb glucose medium: 0.6866% and 20.68%.
With Cc1nc(CN(C)C2CCN(Cc3ccc4ccccc4n3)C2)no1 (configuration not stated) the screen gave Mtb cholesterol medium: -7.12%; Mtb glucose medium: 27.26%.
With COCCC1CCCCN1C(=O)c1coc(COc2ccccc2F)n1 (configuration not stated) the screen gave Mtb cholesterol medium: 15.3%; Mtb glucose medium: 8.429%.
With CN(Cc1nccn1CC(F)(F)F)C(=O)c1ccc2c(c1)OCO2 the screen gave Mtb cholesterol medium: 2.888%; Mtb glucose medium: 20.95%.
With Cn1ncnc1CNc1ccc2c(c1)N(C(=O)OC(C)(C)C)CCC2 the screen gave Mtb cholesterol medium: -4.571%; Mtb glucose medium: 5.993% and -18.81%.
With O=C(NCc1ccccc1CN1CCCC1)Nc1nncs1 the screen gave Mtb cholesterol medium: -12.83%; Mtb glucose medium: -1.593%.
With COc1ccccc1CN(Cc1nc(CC(C)C)no1)C1CC1 the screen gave Mtb cholesterol medium: 13.25%; Mtb glucose medium: 19.47%.
With COc1cccc(Oc2nc(C)c(C(=O)O)s2)c1OC the screen gave Mtb cholesterol medium: 23.68%; Mtb glucose medium: 24.24%.
With CC(NCCCc1cnn(C)c1)c1ccc(Cl)s1 (configuration not stated) the screen gave Mtb cholesterol medium: 20.09%; Mtb glucose medium: -5.989%.
With Cc1ncncc1C(=O)N1CCC(O)(CN(C)Cc2ccc(F)cc2)C1 (configuration not stated) the screen gave Mtb cholesterol medium: -8.727%; Mtb glucose medium: 4.44%.
With Cc1nc2ccccc2c(=O)n1CCC(=O)N1CCSCC1 the screen gave Mtb cholesterol medium: -5.303%; Mtb glucose medium: -4.966%.
With CC(=O)N[C@@H]1CN(C(=O)CC2CC2)C[C@H]1O the screen gave Mtb cholesterol medium: 2.291%; Mtb glucose medium: -6.15%.
With Cc1cn2c(n1)CCC(NC(=O)CNS(C)(=O)=O)C2 (configuration not stated) the screen gave Mtb cholesterol medium: 8.985% and -10.46%; Mtb glucose medium: 0.1208%.
With CN(C)CC1CN(c2ncnc3[nH]ccc23)CCO1 (configuration not stated) the screen gave Mtb cholesterol medium: -4.265%; Mtb glucose medium: 1.372%.
With CCOC(=O)C1CCCN(Cc2cc(C#N)n(C)c2C)C1 (configuration not stated) the screen gave Mtb cholesterol medium: 0.4556%; Mtb glucose medium: -8.189%.

Repeated from the top, 2 entries:

For O=C(O)[C@@H]1CN(Cc2ccc3nsnc3c2)C[C@H]1c1ccncc1 the result was Mtb cholesterol medium: -10.1%; Mtb glucose medium: 6.321%.
For CC(C)c1cc(-c2cnn(C)c2C2CC2)c(C#N)c(N)n1 the result was Mtb cholesterol medium: -33.3%; Mtb glucose medium: -10.2%.

Measurements from “University of Dundee, Small-Polar-MMV Screening Library” (2021), ChEMBL document CHEMBL3988442.